From PubChem BioAssay AID330 (DTP/NCI, 2004)
The list shows only some results of the screen, not a fair sample: it is rich in T/C values a quarter to a half above the control, in often repeated tests (any T/C) and in doses without a T/C. Further doses and runs are listed elsewhere. T/C: endpoint of the treated group in % of that of the vehicle group. Some entries give survivors of the animals treated and no T/C: the source files T/C as zero there, which appears to mark a toxic dose or a test without result, not a measured value. Some doses without a T/C left all or most animals alive at the check, yet need not have been tolerated: the source hardly ever lists a survival T/C far under the control, and the zero likely stands for such cases as well. Counts of survivors are from the toxicity check (mostly the fifth day) where no day follows; animals may have died later. Schedule codes are those of the source, taken here to give the interval after Q, in days (D) or hours (H), and the number of doses after X. Some entries hold several experiments; the results are listed from low to high. Some molecules as drawn cover several salts, stereoisomers or complexes of the source; a dose is that of the sample tested. Where survival is the endpoint, this PubChem deposit counts one and a half times the control or more as active, and values a quarter to a half above the control carry no call in these data; other NCI protocols may use other cut-offs. Signs of the kind (2×) count equal records among those shown.

Test system: P388 leukemia ip, CD2F1 mice, survival T/C
Test: NCI In Vivo Anticancer Drug Screen. Data for tumor model P388 Leukemia (intraperitoneal) in CD2F1 (CDF1) mice
Settings: T/C endpoint: median survival time, higher T/C = longer survival
[1] = dose: 50.0 mg/kg/injection, schedule: Q01DX005 (ip), vehicle: saline with Tween-80
[2] = dose: 100.0 mg/kg/injection, schedule: Q01DX005 (ip), vehicle: saline with Tween-80
[3] = dose: 200.0 mg/kg/injection, schedule: Q01DX005 (ip), vehicle: saline with Tween-80
[4] = dose: 200.0 mg/kg/injection, schedule: Q01DX005 (ip), vehicle: saline
[5] = dose: 240.0 mg/kg/injection, schedule: Q01DX005 (ip), vehicle: saline with Tween-80
[6] = dose: 12.5 mg/kg/injection, schedule: Q01DX005 (ip), vehicle: Klucel (hydroxypropylcellulose) (HPC)
[7] = dose: 25.0 mg/kg/injection, schedule: Q01DX005 (ip), vehicle: Klucel (hydroxypropylcellulose) (HPC)
[8] = dose: 50.0 mg/kg/injection, schedule: Q01DX005 (ip), vehicle: Klucel (hydroxypropylcellulose) (HPC)
[9] = dose: 100.0 mg/kg/injection, schedule: Q01DX005 (ip), vehicle: Klucel (hydroxypropylcellulose) (HPC)
[10] = dose: 200.0 mg/kg/injection, schedule: Q01DX005 (ip), vehicle: Klucel (hydroxypropylcellulose) (HPC)

`CCCCCCC(=O)CCCCCCCCCCCCC(=O)OC` was tested, and the survivor count (dose: 12.5 mg/kg/injection, schedule: Q01DX009 (ip), vehicle: saline with Tween-80) was 6 of 6, the survivor count (dose: 25.0 mg/kg/injection, schedule: Q01DX009 (ip), vehicle: saline with Tween-80) was 6 of 6 and the survivor count (dose: 50.0 mg/kg/injection, schedule: Q01DX009 (ip), vehicle: saline with Tween-80) was 6 of 6.

`CN(C)/C=C(/N=C(C#N)C#N)C1OCCO1` was tested, and the survivor count [1] was 4 of 6, the survivor count [2] was 2 of 6 and the survivor count [3] was 0 of 6.

In the case of `COc1ccc(/C=C\c2cc(OC)c(OC)c(OC)c2)c(O)c1O`, the T/C (dose: 2.75 mg/kg/injection, schedule: Q01DX009 (ip), vehicle: saline + alcohol) is reported as 126 % of control, the T/C (dose: 5.5 mg/kg/injection, schedule: Q01DX009 (ip), vehicle: saline + alcohol) is reported as 129 % of control and the T/C (dose: 6.25 mg/kg/injection, schedule: Q01DX009 (ip), vehicle: saline + Tween-80 + alcohol) is reported as 129 and 149 % of control. The T/C (dose: 11.0 mg/kg/injection, schedule: Q01DX009 (ip), vehicle: saline + alcohol) was 129 % of control, the survivor count (dose: 25.0 mg/kg/injection, schedule: Q01DX009 (ip), vehicle: saline + Tween-80 + alcohol) was 6 of 6 and the survivor count (dose: 50.0 mg/kg/injection, schedule: Q01DX009 (ip), vehicle: saline + Tween-80 + alcohol) was 4 of 6. For the same molecule, the survivor count (dose: 100.0 mg/kg/injection, schedule: Q01DX009 (ip), vehicle: saline + Tween-80 + alcohol) was 6 of 6 and the survivor count (dose: 200.0 mg/kg/injection, schedule: Q01DX009 (ip), vehicle: saline + Tween-80 + alcohol) was 2 of 5.

For `CC(C)(C)NC1=NCCNC(c2ccccc2)=C1`, the survivor count (dose: 50.0 mg/kg/injection, schedule: Q01DX005 (ip), vehicle: saline) was 1 of 5, the survivor count (dose: 100.0 mg/kg/injection, schedule: Q01DX005 (ip), vehicle: saline) was 0 of 5 and the survivor count [4] was 0 of 5.

In the case of `CC(C)(Cc1nocc1C(C)(C)CC#N)c1cc(CC(C)(C)C2(C)OCCO2)no1`, the survivor count [5] is reported as 4 of 6.

For `CNC(=O)OCc1ccc(NCCN(C)C)c2c(=O)c3cc(OC(=O)NC)ccc3oc12`, the T/C [6] was 127 % of control, the T/C [7] was 132 % of control and the survivor count [7] was 2 of 6. The survivor count [8] was 0 of 6, the survivor count [9] was 0 of 6 and the survivor count [10] was 0 of 6.

In the case of `C[n+]1cc(-c2ccccc2)cc(-c2ccccc2)c1`, the survivor count [7] is reported as 0 of 6, the survivor count (dose: 25.0 mg/kg/injection, schedule: Q01DX005 (ip), vehicle: saline) is reported as 2 of 6 and the survivor count [8] is reported as 0 of 6. For the same molecule, the survivor count [1] was 0 of 6, the survivor count [9] was 0 of 6 and the survivor count [2] was 0 of 6. The survivor count [10] was 0 of 6 and the survivor count [3] was 0 of 6.

In the case of `Cn1c(=O)c2c(ncn2-c2ccc(N)cn2)n(C)c1=O`, the survivor count [9] is reported as 5 of 5 and the survivor count [10] is reported as 5 of 5.

`N=[N+]=CC(=O)CC(N)C(=O)O` (configuration not stated) was tested, and the T/C (dose: 200.0 mg/kg/injection, schedule: Q01DX009 (ip), vehicle: saline) was 126 % of control and the T/C (dose: 400.0 mg/kg/injection, schedule: Q01DX009 (ip), vehicle: saline) was 126 % of control.

In the case of `CN(Cc1cnc2nc(N)nc(N)c2n1)c1c(Cl)cc(C(=O)NC(CCC(=O)O)C(=O)O)cc1Br` (configuration not stated), the T/C (dose: 264.0 mg/kg/injection, schedule: Q04DX003 (ip), vehicle: saline with Tween-80) is reported as 141 % of control.

For `Cc1c2cnccc2c(C)c2c1c1ccccc1n2CCCCCCCCCCn1c2ccccc2c2c(C)c3cnccc3c(C)c21`, the survivor count (dose: 200.0 mg/kg/injection, schedule: Q04DX002 (ip), vehicle: saline with Tween-80) was 6 of 6.

With `O=C(NC(O)C(Cl)(Cl)Cl)c1ccccc1` (configuration not stated) the survivor count [2] was 6 of 6.

With `CCCCCCCCCCCCCCCCc1c(C(=O)OC)nc(N)[nH]c1=O` the survivor count (dose: 60.0 mg/kg/injection, schedule: Q01DX005 (ip), vehicle: saline with Tween-80) was 3 of 6, the survivor count (dose: 120.0 mg/kg/injection, schedule: Q01DX005 (ip), vehicle: saline with Tween-80) was 3 of 6 and the survivor count [5] was 0 of 6.

For `CC1=C[P+](c2ccccc2)(c2ccccc2)c2ccccc2O1`, the survivor count [6] was 5 of 5, the survivor count [7] was 3 of 5 and the survivor count [8] was 2 of 5. For the same molecule, the survivor count [9] was 0 of 5 and the survivor count [10] was 0 of 5.

With `CCCCCCC[CH2][Sn](=[O])[CH2]CCCCCCC` the survivor count (dose: 100.0 mg/kg/injection, schedule: Q01DX009 (ip), vehicle: saline with Tween-80) was 6 of 6 and the survivor count (dose: 200.0 mg/kg/injection, schedule: Q01DX009 (ip), vehicle: saline with Tween-80) was 1 of 6.

For `O=C1CC([Se]c2ccccc2)C(=O)N1` (configuration not stated), the survivor count (dose: 100.0 mg/kg/injection, schedule: Q04DX003 (ip), vehicle: Klucel (hydroxypropylcellulose) (HPC)) was 2 of 6 and 3 of 6, the survivor count (dose: 200.0 mg/kg/injection, schedule: Q04DX003 (ip), vehicle: Klucel (hydroxypropylcellulose) (HPC)) was 0 of 6 and the survivor count (dose: 400.0 mg/kg/injection, schedule: Q04DX003 (ip), vehicle: Klucel (hydroxypropylcellulose) (HPC)) was 0 of 6.

For `CC1CC(C)CN(C)C1` (configuration not stated), the survivor count [4] was 0 of 6.

`O=c1oc2ccccc2c2c1C(c1ccc3c(c1)OCO3)C=C(c1ccc3c(c1)OCO3)O2` (configuration not stated) was tested, and the survivor count (dose: 400.0 mg/kg/injection, schedule: Q01DX009 (ip), vehicle: water) was 4 of 6 and the survivor count (dose: 600.0 mg/kg/injection, schedule: Q01DX009 (ip), vehicle: water) was 5 of 5.

With `O=C1C(O)=C(O)C(=O)c2ccccc21` the survivor count (dose: 100.0 mg/kg/injection, schedule: Q01DX009 (ip), vehicle: Klucel (hydroxypropylcellulose) (HPC)) was 0 of 6 and the survivor count (dose: 200.0 mg/kg/injection, schedule: Q01DX009 (ip), vehicle: Klucel (hydroxypropylcellulose) (HPC)) was 0 of 6.

For `COc1ncnc2c1ccn2C1OC(CO)C(O)C1O` (configuration not stated), the survivor count [7] was 4 of 6, the survivor count [8] was 6 of 6 and the survivor count [9] was 0 of 6. For the same molecule, the survivor count [10] was 0 of 6.

With `Nc1c(S(=O)(=O)O)cc(Nc2cccc(CO)c2)c2c1C(=O)c1ccccc1C2=O` the survivor count (dose: 50.0 mg/kg/injection, schedule: Q01DX001 (ip), vehicle: saline) was 6 of 6 and the survivor count (dose: 200.0 mg/kg/injection, schedule: Q01DX001 (ip), vehicle: saline) was 5 of 6.

For `Cc1cc(C)c(S(=O)(=O)N/N=C/C(=O)O)c(C)c1`, the T/C (dose: 25.0 mg/kg/injection, schedule: Q01DX009 (ip), vehicle: other) was 126 % of control, the T/C (dose: 50.0 mg/kg/injection, schedule: Q01DX009 (ip), vehicle: other) was 137 % of control (2×) and the survivor count (dose: 100.0 mg/kg/injection, schedule: Q01DX009 (ip), vehicle: other) was 6 of 6. For the same molecule, the survivor count (dose: 200.0 mg/kg/injection, schedule: Q01DX009 (ip), vehicle: other) was 3 of 6 and 5 of 6 and the survivor count (dose: 400.0 mg/kg/injection, schedule: Q01DX009 (ip), vehicle: other) was 1 of 6.

In the case of `OCNC(=S)c1ccccc1`, the survivor count [3] is reported as 0 of 5.

In the case of `COc1cccc2c1C(=O)c1c(O)c3c(c(O)c1C2=O)C[C@@](O)(C(C)=O)C[C@@H]3OC1CC(N2CCC(OC)CC2)C(O)C(C)O1` (some centres not stated), the T/C (dose: 3.12 mg/kg/injection, schedule: Q04DX003 (ip), vehicle: water, evaluated on day 30) is reported as 126 % of control, the T/C (dose: 3.12 mg/kg/injection, schedule: Q04DX003 (ip), vehicle: water, evaluated on day 35) is reported as 142 % of control and the T/C (dose: 12.5 mg/kg/injection, schedule: Q04DX003 (ip), vehicle: water) is reported as 140 % of control.
